Measurements from doi:10.1101/502831.
Results are given in words; binding and its absence hold for the method and conditions named. In cells and extracts the contact can be indirect. A result given as binding can be weak or reduced; the word gives no strength.

Biological target: Glutathione S-transferase-tagged LsTUB (GST-TUB) (Laodelphax striatellus)
Assay: pull-down

B1: Rice stripe virus nonstructural protein 3 (NS3) in extracts of viruliferous SBPH (protein, UniProt P26658 1-211)
chain: MNVFTSSVGSVEFDHPLLLENDLTSLSINCDDVHCSSRALCYIYDIHSSRHPSIDEHQFLRLLHGPDDAVTLGSFLKTLIWILSHDKNLPEEYRLPTIMMSSSYVKFFTEVKPRPPSTNCWTCRMSKDNLPFTVPSVKGFPPDAELYIVPISDHDGKPVKFDNRKTLYRSPSKKRHKYVISSDKPPLSARYVKYVDSSALESLPGSSPAVL
  binding: binds
